Test results: article PMC3061866
Results are given in words; binding and its absence hold for the method and conditions named. Binding seen in cells or lysates may run through a third protein. These calls come from enrichment with a bait or labelling near it, and not all partners need be listed. A no says only that the protein was not detected with the bait. Sequences can lack the tags named with a protein.

T1: Mis17-FLAG (S. pombe) (UniProt O94643)
T1 sequence: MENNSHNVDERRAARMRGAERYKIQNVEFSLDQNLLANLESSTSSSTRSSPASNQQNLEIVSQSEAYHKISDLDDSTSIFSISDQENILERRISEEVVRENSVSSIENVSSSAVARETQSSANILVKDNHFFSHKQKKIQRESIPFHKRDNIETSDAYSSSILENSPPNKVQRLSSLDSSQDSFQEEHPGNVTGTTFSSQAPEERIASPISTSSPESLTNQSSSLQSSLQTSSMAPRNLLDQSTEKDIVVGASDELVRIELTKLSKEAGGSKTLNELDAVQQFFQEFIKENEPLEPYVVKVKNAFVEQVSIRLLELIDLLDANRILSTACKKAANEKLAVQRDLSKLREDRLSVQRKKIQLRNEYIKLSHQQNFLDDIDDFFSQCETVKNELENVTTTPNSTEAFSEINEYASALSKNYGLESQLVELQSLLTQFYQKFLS

T2: Mis12-FLAG (S. pombe) (UniProt Q9Y738)
T2 sequence: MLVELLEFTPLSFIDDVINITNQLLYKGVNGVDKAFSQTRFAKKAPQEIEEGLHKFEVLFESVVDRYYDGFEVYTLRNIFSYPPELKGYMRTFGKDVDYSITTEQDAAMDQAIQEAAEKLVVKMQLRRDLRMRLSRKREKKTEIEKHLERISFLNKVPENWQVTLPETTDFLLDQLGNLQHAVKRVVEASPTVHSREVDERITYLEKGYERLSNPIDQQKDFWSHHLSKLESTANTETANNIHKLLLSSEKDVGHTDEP

T3: Mis6-FLAG (S. pombe) (UniProt P87227)
T3 sequence: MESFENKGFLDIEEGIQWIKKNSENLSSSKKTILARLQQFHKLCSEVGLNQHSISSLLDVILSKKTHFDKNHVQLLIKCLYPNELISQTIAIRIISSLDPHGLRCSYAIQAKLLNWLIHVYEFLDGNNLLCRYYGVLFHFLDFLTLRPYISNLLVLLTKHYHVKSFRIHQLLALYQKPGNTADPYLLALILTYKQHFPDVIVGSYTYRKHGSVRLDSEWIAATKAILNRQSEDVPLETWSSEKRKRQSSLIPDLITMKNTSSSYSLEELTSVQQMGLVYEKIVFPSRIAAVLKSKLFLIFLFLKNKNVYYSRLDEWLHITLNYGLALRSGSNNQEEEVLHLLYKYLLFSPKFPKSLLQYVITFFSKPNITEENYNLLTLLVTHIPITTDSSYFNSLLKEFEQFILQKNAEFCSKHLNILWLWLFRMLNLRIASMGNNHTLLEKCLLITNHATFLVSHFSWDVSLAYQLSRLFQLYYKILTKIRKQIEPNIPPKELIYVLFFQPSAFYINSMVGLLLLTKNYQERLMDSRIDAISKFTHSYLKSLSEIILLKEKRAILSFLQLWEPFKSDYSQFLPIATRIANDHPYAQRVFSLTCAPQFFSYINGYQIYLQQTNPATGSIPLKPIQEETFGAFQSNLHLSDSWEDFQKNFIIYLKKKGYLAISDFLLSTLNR


Assays:
Assay in all cases: affinity purification with mass spectrometry; anti-FLAG immunoprecipitation from extracts of S. pombe strains expressing Mis17-, Mis6- or Mis12-FLAG under the native promoter; extraction buffer 25 mM HEPES-KOH pH 7.5, 200 mM NaCl, 10% glycerol, 0.1% NP-40, 1 mM PMSF; 4-12% SDS-PAGE, gel slices, in-gel trypsin digestion, LC/MS/MS
Mis17-FLAG (S. pombe) = target: T1, Mis17-FLAG (S. pombe)
Mis12-FLAG (S. pombe) = target: T2, Mis12-FLAG (S. pombe)
Mis6-FLAG (S. pombe) = target: T3, Mis6-FLAG (S. pombe)

Binder | binding (Mis17-FLAG (S. pombe)) | binding (Mis12-FLAG (S. pombe)) | binding (Mis6-FLAG (S. pombe))
Mis6 (protein, UniProt P87227 1-672) MESFENKGFLDIEEGIQWIKKNSENLSSSKKTILARLQQFHKLCSEVGLNQHSISSLLDVILSKKTHFDKNHVQLLIKCLYPNELISQTIAIRIISSLDPHGLRCSYAIQAKLLNWLIHVYEFLDGNNLLCRYYGVLFHFLDFLTLRPYISNLLVLLTKHYHVKSFRIHQLLALYQKPGNTADPYLLALILTYKQHFPDVIVGSYTYRKHGSVRLDSEWIAATKAILNRQSEDVPLETWSSEKRKRQSSLIPDLITMKNTSSSYSLEELTSVQQMGLVYEKIVFPSRIAAVLKSKLFLIFLFLKNKNVYYSRLDEWLHITLNYGLALRSGSNNQEEEVLHLLYKYLLFSPKFPKSLLQYVITFFSKPNITEENYNLLTLLVTHIPITTDSSYFNSLLKEFEQFILQKNAEFCSKHLNILWLWLFRMLNLRIASMGNNHTLLEKCLLITNHATFLVSHFSWDVSLAYQLSRLFQLYYKILTKIRKQIEPNIPPKELIYVLFFQPSAFYINSMVGLLLLTKNYQERLMDSRIDAISKFTHSYLKSLSEIILLKEKRAILSFLQLWEPFKSDYSQFLPIATRIANDHPYAQRVFSLTCAPQFFSYINGYQIYLQQTNPATGSIPLKPIQEETFGAFQSNLHLSDSWEDFQKNFIIYLKKKGYLAISDFLLSTLNR | binds | no binding | 
Fta7 (protein, UniProt O74844 1-244) MEMKRRVRAVRRDQIQKRWRPLEDKQRQEIIIIFRTCSRLVLNTIKSETRKSLAEEWFMNILLKIEAPLRNLPVPRKRKESILFSQLLSSNMQLEQQLYSDLDHINVLQQELKVETARLENEQKSYEEMKQNMAINNSRLADLKSKLHPYLKKGLKISHDNFSDSNDFSFQKKLNTEDSNTSKTSTLDMYKEKLKPFTKTMQIHANKTVQLSQTIQKATLLLQRLNNTKNIGLNKSSKLKIKNI | binds | no binding | binds
Cnl2 (protein, UniProt O13952 1-188) MNMEEQILNDYLLSQGRLQSIISLEQWRQLFPQRYREDPLIERLYEYCTQQRQKRLAKLRANIHLESQVIGKSRIDRMLATNVEKLQTVSHASTLHDVEEFYTSHSAKPLDISEINERLSEAVQSAYTKLNEEKERCTQLTLKMNSQIASLSDFQWSKEPNVDESIHLVESLIESLEKAAPSAIEELD | binds | no binding | binds
Mis15 (protein, UniProt Q9C0W0 1-409) MRTELSSNIRIKHDKKIQKLLNRFPRDFLVKLCVEWIQKQTYPPNAKDINLEDMLDDEEWNPEAFYKNVPKSMLKRSIIHRMLVYDWPNGFYLGQIAQLEILALAHGFVSMRWTASKVHHSAEKTVLPNPLVFLELLKSELESIFVYHTYISRHETLPITFIRLVLWDSKRPTALHTYPSSKQIFYLGLMDDSDVLLHNIFLRNDVCHSLFLQCLSRLLYRLKAGSALRPIDLVSKNLTTFCTNVGVNKEANALGAWQIYAKNLVDRSPLDTRPILSDDNSSLIADSTQNCEKHREMAIQRRFGDTHSQVLDKLLITLDHDYIEKSTEKDKVLEENVESYNPTEQRPLVVMQLRGQHILEGLKDICRQDALDPFTMPSYLTGETGLSILYVRDGLVLQRQESLGQQEIN | binds | no binding | binds
Mis17 (protein, UniProt O94643 1-441) MENNSHNVDERRAARMRGAERYKIQNVEFSLDQNLLANLESSTSSSTRSSPASNQQNLEIVSQSEAYHKISDLDDSTSIFSISDQENILERRISEEVVRENSVSSIENVSSSAVARETQSSANILVKDNHFFSHKQKKIQRESIPFHKRDNIETSDAYSSSILENSPPNKVQRLSSLDSSQDSFQEEHPGNVTGTTFSSQAPEERIASPISTSSPESLTNQSSSLQSSLQTSSMAPRNLLDQSTEKDIVVGASDELVRIELTKLSKEAGGSKTLNELDAVQQFFQEFIKENEPLEPYVVKVKNAFVEQVSIRLLELIDLLDANRILSTACKKAANEKLAVQRDLSKLREDRLSVQRKKIQLRNEYIKLSHQQNFLDDIDDFFSQCETVKNELENVTTTPNSTEAFSEINEYASALSKNYGLESQLVELQSLLTQFYQKFLS |  | no binding | binds
Sim4 (protein, UniProt O94494 1-277) MNSENASLFRNILNDTENLVQPLTQDESRLALFESLVQSDQLLVEKIEKWEKKVSKFTENSKSEKRKLQLELFQEIIDLKKCIAFKPIIGKNAIDNNISDLKKNLHSNKKLEAVLKEELHQIKKFSSDLQSLKSSMGERQKQQAAMSRRGKKSIIHSAIIQEKERYEKESQELFTFLDGFLDEHAPSLLEGAQASIDKNRPGKNQPSLNFENISKKDLTEEFKQVIENLMNNSIIPGSPYIEVKNERIVSFLVLASLCTVDPQDPSKVKLIPFSDEI | binds | no binding | binds
Mal2 (protein, UniProt Q10290 1-303) MDDEEGNATLIDEISVLEARRDVLLDELKSLDNATLSDLVQKPELSKNLSVNNEFLKETPLNQPALHYDRLSGISFFQPNDPEELSRKTLLVKNKKTGAIETAPSIPLLGVRFDIMLNPVNIGFTNLSENPISSASGMDEELEGGNRFDVPYYIIFRVFHDSFALYKYTIPSFLNIQEWADEYLTGKNPERFRIFLWKVDKLLTAYICRKNALLQINKSLTIDGTNISANLSCTHLVIQIPKVIQATLVCSSESTRVVKSRIYQYSDENWKRDHRLELSLLDNKRWVNILVSHLTAPESHASL | binds | no binding | binds
Fta1 (protein, UniProt O36024 1-280) MTLRDHHFYNVTYTAYRLSPLFGFEYSNLTEIGKKLTRFLRYGTDRTGYFTNSTRFADLIIEKATFTEFGNTSSFPKFLKLDISYETSSDLEVKRKGQMFFFESFRKFSHAEADRTRLSLEGNSVFFSLALVRMDGALWMAVEQFLQQEFDTQILPCLIAPEILLEFLKIWQNHVNSQTALPLELTWTTGNPNLSSVTISIRPEDLKKIFRSSSFFYPILMEHIKRCTSLDLTNSVFSLSKVNTDCAILTSSGKLKIFSKAQNIVFDVLLALEPMQLPEY | binds | no binding | binds
Fta2 (protein, UniProt Q9US26 1-351) MSGRRYSQISQQEGSSSSDDSDSQQKKTKRTVAHRSPNTTLNGMPRVDSRARPNENSGQSKSSNGRVDTDRKMDLLRKRSNLVHQTLLLEKEVRVRRNAINQRDDSFLSGFIKSLLEIDSSVVIYNTENPDNPKTKQVMPSAEPKKHVKLNSSISSIRFTQHEFEAESEKIIHHSLKGDIEYLPSFKFLLEIKVRTIDYALLFITYKIPHFARKELSSFSDSAIQCLDIVALLRAFSLFAHHYSYRCNTWFYLSKHMKKVASANMDAQCFYVQNSFYKITILYEIKFDDLGFVQPNYCISYILKNQNEKIVSITSKLLNQLDKRFSEFVSLFGFREGSLLLLQALFKPHLG | binds | no binding | binds
Dad1 (protein, UniProt P87297 1-90) MSSENMDITENIQNEQNKDFDDIDFERRRRLLTLQISKSMNEVVNLMSALNKNLESINGVGKEFENVASLWKEFQNSVLQKKDREMLDAP | binds weakly |  | binds
Mis12 (protein, UniProt Q9Y738 1-259) MLVELLEFTPLSFIDDVINITNQLLYKGVNGVDKAFSQTRFAKKAPQEIEEGLHKFEVLFESVVDRYYDGFEVYTLRNIFSYPPELKGYMRTFGKDVDYSITTEQDAAMDQAIQEAAEKLVVKMQLRRDLRMRLSRKREKKTEIEKHLERISFLNKVPENWQVTLPETTDFLLDQLGNLQHAVKRVVEASPTVHSREVDERITYLEKGYERLSNPIDQQKDFWSHHLSKLESTANTETANNIHKLLLSSEKDVGHTDEP | no binding |  | no binding
